The other results are listed elsewhere or left out.

The assay deals with T1, OsSMF1 (Oryza sativa, UniProt Q6ZLB0 1-436).
T1 sequence: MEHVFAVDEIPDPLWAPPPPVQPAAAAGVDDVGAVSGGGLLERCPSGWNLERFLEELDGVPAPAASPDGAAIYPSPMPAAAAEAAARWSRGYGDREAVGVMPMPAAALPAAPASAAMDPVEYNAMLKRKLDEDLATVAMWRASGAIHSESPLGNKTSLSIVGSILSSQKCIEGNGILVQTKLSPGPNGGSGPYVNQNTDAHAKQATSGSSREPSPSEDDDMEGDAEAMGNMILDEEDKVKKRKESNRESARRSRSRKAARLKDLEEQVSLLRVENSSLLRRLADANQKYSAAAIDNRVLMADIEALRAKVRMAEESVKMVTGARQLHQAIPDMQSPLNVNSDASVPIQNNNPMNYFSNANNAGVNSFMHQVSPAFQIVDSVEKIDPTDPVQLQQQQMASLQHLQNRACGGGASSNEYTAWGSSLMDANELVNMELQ
Kind of assay: protein-binding microarray (RPBM); PBS, 2% BSA, 51.3 ng/ul salmon testes DNA, 50 uM zinc acetate, 200 nM TF, 25 C, 1 h; high values mean tight binding. Conditions: protein: recombinant; tags: N-terminal polyhistidine and DsRed monomer fusion (pET32a); chain copies: 2; label: CyDye5-dUTP incorporated in the synthesized complementary strand; 3' TTTTT single-stranded linker to array surface; dsDNA, one strand shown. Put shortly:
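An Axon 4000B scanner gave the binding signal as per-feature fluorescence intensity in arbitrary units. This followed washing of a custom Agilent array that had been incubated for 1 h at 25 °C with 200 nM protein in PBS, 2% BSA, salmon testes DNA and 50 µM zinc acetate. The proteins were transcription factors fused at the N-terminus to polyhistidine and DsRed, expressed in E. coli BL21-CodonPlus and purified on Ni–NTA.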
On to “TATACAACAATTGTGCTTTGTCTGCAGCTCCGTCACTGAACGGAGTCACCTAGTGCAG”, for which the binding signal was 3630 fluorescence intensity (a.u.).

Regarding “AGCACGGACTCCAAAACGTAATGTGTGTATGACACGTGCGCGGAGTCACCTAGTGCAG”, the binding signal was 8730 fluorescence intensity (a.u.).

Take “ATAAGAAAACAAACGTACTATATGATGCGACACGTTGTAGCGGAGTCACCTAGTGCAG”: the binding signal was 3220 fluorescence intensity (a.u.).

Consider “CCACCATGCCGTCACCATCCCAGCCGTCCTCCTCCTCCTCCGGAGTCACCTAGTGCAG”, for which the binding signal was 4840 fluorescence intensity (a.u.).

With “CGATCGATCGGAACGCGCGCGGCGCTCCACGGCCATGTCCCGGAGTCACCTAGTGCAG”, the binding signal was 3470 fluorescence intensity (a.u.).

For the sequence “CACGGACGCAAGGGGCCTGCTAAGCCTCTACAACGCAGCGCGGAGTCACCTAGTGCAG”, the binding signal was 41800 fluorescence intensity (a.u.).

Consider “GAAACCGAGGTAATTTCGTCGAACACCTTGATGACGTCCACGGAGTCACCTAGTGCAG”, for which the binding signal was 4350 fluorescence intensity (a.u.).

In the case of “GCTGTGCCGTGGGGCCGAGGTGACGTGTGGATGCTGACTTCGGAGTCACCTAGTGCAG”, the binding signal is 12000 fluorescence intensity (a.u.).

Consider “CAGAGGCGGTCAAGTGTGGTGCGGTGCGATGGCAGCGGGGCGGAGTCACCTAGTGCAG”, for which the binding signal is 3940 fluorescence intensity (a.u.).

On to “GGGCCAATCTAGTTGTCAACTTCTACTACTGCTAGGAGGACGGAGTCACCTAGTGCAG”, for which the binding signal was 3410 fluorescence intensity (a.u.).

As for “GCGCCCTCCTCCTGCCACGTCGGTTCGCGTGCGCCACGGTCGGAGTCACCTAGTGCAG”, the binding signal is 19500 fluorescence intensity (a.u.).

Take “CGCCACGCTTGCCTTCATCACCCAGACACGCGCGTCCCATCGGAGTCACCTAGTGCAG”: the binding signal is 3430 fluorescence intensity (a.u.).

Turning to “GAGGCGGGTGATAGCGCGGTGGGGCGGTGGCGGCGGTGGACGGAGTCACCTAGTGCAG”, the binding signal is 3290 fluorescence intensity (a.u.).

As for “TACTATTAAACCGTATGTGACTAATAATCAAGCTGAGTATCGGAGTCACCTAGTGCAG”, the binding signal is 3320 fluorescence intensity (a.u.).

For “AGAAGGCAATGAAAGAAGATTGCTGACTAGGATTGTTGGCCGGAGTCACCTAGTGCAG”, the binding signal was 21600 fluorescence intensity (a.u.).

On to “CATGGTGCGGGCCAGCTCAGCTGTGCACGTGGCATGCCACCGGAGTCACCTAGTGCAG”, for which the binding signal is 17200 fluorescence intensity (a.u.).

Turning to “TTATGTACTAATGACTCATCATGTTTTACATGTATTCTCTCGGAGTCACCTAGTGCAG”, the binding signal was 25900 fluorescence intensity (a.u.).

As to “TGATTTGACGCTGACTATTATATAGATAGTCCCTCACGTTCGGAGTCACCTAGTGCAG”, the binding signal is 3170 fluorescence intensity (a.u.).

Consider “TTGTCGTACTCCAGTACTCCACTATCGCTGCCACGACCATCGGAGTCACCTAGTGCAG”, for which the binding signal is 3160 fluorescence intensity (a.u.).

As for “CCCCACAACCCCGCATCGTCATCACCACCACCACTCCTCGCGGAGTCACCTAGTGCAG”, the binding signal is 3600 fluorescence intensity (a.u.).

On to “TATGATTTTAAATTCGTCATACTCTAGTTAGCCTAGAAAACGGAGTCACCTAGTGCAG”, for which the binding signal is 3430 fluorescence intensity (a.u.).

With “TTATGCGCTAATCCACTCCAGATCACGCCGCTAATCCTTACGGAGTCACCTAGTGCAG”, the binding signal was 3540 fluorescence intensity (a.u.).

Turning to “CTTATCGAGCTGACGGCCAGGTACCCGCCGTGGGATGACACGGAGTCACCTAGTGCAG”, the binding signal was 4060 fluorescence intensity (a.u.).

Take “CGTCCACGTGCTTCCTAAGATCTGACTCCTCTTGCATCTGCGGAGTCACCTAGTGCAG”: the binding signal is 4640 fluorescence intensity (a.u.).

As for “GTCTAAAATATTGGGTCCACCAATTTAAGTGAAAATCGACCGGAGTCACCTAGTGCAG”, the binding signal was 24600 fluorescence intensity (a.u.).

“GGTTTCTTGATCAGAACTCCACTTAGAGCAACTTCAACAGCGGAGTCACCTAGTGCAG”: the binding signal is 3320 fluorescence intensity (a.u.).

Consider “ATACCACTGGAGTGTCGAGACAGCTGCCTGCACGCCACTGCGGAGTCACCTAGTGCAG”, for which the binding signal is 3470 fluorescence intensity (a.u.).

Take “AACGGAGGCAAGAACTACCTCGCCGTGGACACGTCCGGCACGGAGTCACCTAGTGCAG”: the binding signal is 5440 fluorescence intensity (a.u.).

“CAAAATTAGTCAAGCACATGAACAGTCAGCATGGCCGTGCCGGAGTCACCTAGTGCAG”: the binding signal is 8340 fluorescence intensity (a.u.).

Turning to “GGATAACACCAACCAACGAGTCCACGTCGTCTCGTCTCCCCGGAGTCACCTAGTGCAG”, the binding signal is 11200 fluorescence intensity (a.u.).

For “AATTATAAAATATTGTTCATAATGTGACATGCTAGCGATCCGGAGTCACCTAGTGCAG”, the binding signal was 3410 fluorescence intensity (a.u.).

Turning to “CATCCTGATCCACATGTCATTGACTCACGTGGGTACTACACGGAGTCACCTAGTGCAG”, the binding signal was 5200 fluorescence intensity (a.u.).

With “TGGCAGTAAAACACCACGTGCTGGAACGTATGGCATATGGCGGAGTCACCTAGTGCAG”, the binding signal is 3290 fluorescence intensity (a.u.).

Take “GCTTTCCGCCGCAGTCTGCCCCTCTGCCACCGGGCCCCACCGGAGTCACCTAGTGCAG”: the binding signal was 31600 fluorescence intensity (a.u.).

As for “ATCAGTCCTTCCCATCCTCTGTTAGCCTCGCGTGACGCCCCGGAGTCACCTAGTGCAG”, the binding signal was 3770 fluorescence intensity (a.u.).

As to “AAGCTAGCACACTGGTTATAGCACGTGGTATTTGTTCTCACGGAGTCACCTAGTGCAG”, the binding signal was 5280 fluorescence intensity (a.u.).

As to “TTCGCAAAACAAAATTTTCACCTATCACATCGAATGTTTGCGGAGTCACCTAGTGCAG”, the binding signal is 3270 fluorescence intensity (a.u.).

Turning to “CGGTTAGGTGCGCCGGCCACCAGCCAACCACCTGACGCGGCGGAGTCACCTAGTGCAG”, the binding signal was 7490 fluorescence intensity (a.u.).

Take “GTGCGGCACAACACAATTGTTTCCTTTCCTTTTCTTTCTCCGGAGTCACCTAGTGCAG”: the binding signal is 19600 fluorescence intensity (a.u.).

Consider “AGCTTCGTGCGGACGCGGCCGCCGGGCTGTAGCTGCAACTCGGAGTCACCTAGTGCAG”, for which the binding signal was 3460 fluorescence intensity (a.u.).

As for “AATTCAATATAATCCCATGGCGTCAGCTTGATACTGCTCCCGGAGTCACCTAGTGCAG”, the binding signal is 3560 fluorescence intensity (a.u.).

With “TCGACCCACCGTCTGCCACGTCAGCTTGCCGCCCACCAATCGGAGTCACCTAGTGCAG”, the binding signal is 28900 fluorescence intensity (a.u.).

These data come from article PMC7819943, “Rice protein-binding microarrays: a tool to detect cis-acting elements near promoter regions in rice”.
